# Source: US12662403B2, “Photoswitchable guanidinium compounds for removal of oxyanions from liquid solutions” (UT-Battelle, LLC, priority 2021, dated 2026)
# Test: Photoswitched sulfate precipitation-dissolution cycle in DMSO
# Source text: At higher concentrations in DMSO, the 2PyDIG receptor binds to sulfate as the 1:2 complex (Eq. 4 in Table 1) and precipitates as illustrated in FIG. 12. The precipitate instantly forms upon addition of two equivalents of sulfate, putatively assigned as the [(E,E-2PyDIG)(SO4)2]^2− species. […] The present work was able to indirectly determine the amount of precipitated 2PyDIG and relative ratio of PyDIG to sulfate of the precipitate. Upon addition of sulfate to the E,E-2PyDIG solution, 73.7% of the E,E-PyDIG receptor precipitates according to a ^1H NMR spectrum of the supernatant. Adding barium chloride to the separated supernatant precipitated the non-interacting sulfate, affording a ratio of sulfate to PyDIG of 2.05. The estimated percentage of sulfate precipitated by gravimetric analysis is 63%. Photoirradiating the suspension redissolves the solid, where the E,E-PyDIG undergoes photoisomerization to the Z,Z form, ejecting bound sulfate in the process, as summarized in Eq. 6. Over time, the free Z,Z-PyDIG in solution reverts to the E,E through a thermal relaxation process, where the [(E,E-2PyDIG)(SO4)2]^3− species is again precipitated.
structure (smiles),measurement,setting,value
"N=C(N/N=C/c1ccccn1)N/N=C/c1ccccn1.O=S(=O)(O)C(F)(F)F [E,E-2PyDIG, bis(2-((E)-pyridin-2-ylmethylene)hydrazineyl)methaniminium trifluoromethanesulfonate]",receptor precipitated upon addition of sulfate,"10 mM in DMSO, two equivalents of sulfate, 1H NMR of supernatant",73.7%
same,ratio of sulfate to PyDIG of the precipitate,barium chloride added to separated supernatant,2.05
same,estimated percentage of sulfate precipitated,gravimetric analysis,63%
